Source: publication PMC10216903, “Implication of the Transmembrane Domain in the Interleukin 10 Receptor Platform Oligomerisation” (Cells, 2023)
No constants are given. Whether binding was seen depends on the method and setting. In cells and extracts the contact can be indirect. Some binding calls cover weakened binding; strength is not graded here.

Experiments:
[1] = molecular target: T1, IL-10Rα, endogenous in RAW264.7 and BV-2 cells (mouse (endogenous in RAW264.7 and BV-2)) (UniProt Q61727); assay: proximity ligation; Duo-Link on BV-2 cells, DMSO or peptide 10^-7 M for one hour, fixed 2% PFA, permeabilized; antibodies to IL-10Ra and IL-10Rb; endogenous subunits
T1 sequence: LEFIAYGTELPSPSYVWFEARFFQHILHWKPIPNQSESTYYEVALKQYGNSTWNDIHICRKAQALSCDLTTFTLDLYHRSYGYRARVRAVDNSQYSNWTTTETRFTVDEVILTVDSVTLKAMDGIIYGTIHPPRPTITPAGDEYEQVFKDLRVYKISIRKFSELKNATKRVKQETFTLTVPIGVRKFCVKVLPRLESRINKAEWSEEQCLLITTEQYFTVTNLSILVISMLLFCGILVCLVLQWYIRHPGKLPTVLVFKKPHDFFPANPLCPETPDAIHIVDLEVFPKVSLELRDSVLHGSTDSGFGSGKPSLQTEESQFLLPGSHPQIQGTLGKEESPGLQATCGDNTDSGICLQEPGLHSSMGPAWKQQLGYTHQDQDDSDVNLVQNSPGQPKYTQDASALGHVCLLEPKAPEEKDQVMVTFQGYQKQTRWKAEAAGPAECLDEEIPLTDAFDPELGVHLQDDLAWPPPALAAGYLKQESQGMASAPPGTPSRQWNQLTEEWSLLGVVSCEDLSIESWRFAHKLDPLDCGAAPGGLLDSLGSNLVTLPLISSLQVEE

[2] = molecular target: T1, IL-10Rα, endogenous in RAW264.7 and BV-2 cells (mouse (endogenous in RAW264.7 and BV-2)); assay: proximity ligation; Duo-Link on RAW264.7 cells, DMSO or peptide 10^-7 M for one hour, fixed 2% PFA, permeabilized; antibodies to IL-10Ra and IL-10Rb; endogenous subunits

binding [1]: binds
binding [2]: binds
B1: IL-10Rβ, full-length subunit of the interleukin 10 receptor (receptor, UniProt Q61190 20-349, looked up)
chain: MIPPPEKVRMNSVNFKNILQWEVPAFPKTNLTFTAQYESYRSFQDHCKRTASTQCDFSHLSKYGDYTVRVRAELADEHSEWVNVTFCPVEDTIIGPPEMQIESLAESLHLRFSAPQIENEPETWTLKNIYDSWAYRVQYWKNGTNEKFQVVSPYDSEVLRNLEPWTTYCIQVQGFLLDQNRTGEWSEPICERTGNDEITPSWIVAIILIVSVLVVFLFLLGCFVVLWLIYKKTKHTFRSGTSLPQHLKEFLGHPHHSTFLLFSFPPPEEAEVFDKLSIISEESEGSKQSPEDNCASEPPSDPGPRELESKDEAPSPPHDDPKLLTSTSEV
notes: Interleukin 10 receptor subunit beta, full length; One tag per copy: Rluc fusion as donor, eYFP fusion as acceptor; also called IL-10Rβ_FL; full-length IL-10Rβ; source: HEK293, transfected, in living cells
